The list is a part of this screen's results and no random one: it gathers tests that were run many times, whatever their T/C, doses with no T/C, and many T/C values between a quarter and a half above the control. Other doses and runs of a compound stand elsewhere. T/C gives the treated animals as a percentage of the vehicle group. Some doses have a count of surviving animals in place of a T/C: the source holds a T/C of zero for them, seemingly a mark for toxic or unscored doses. Some doses without a T/C left all or most animals alive at the check, yet need not have been tolerated: survival well below the control is almost never listed, so the zero probably covers shortened survival too. Survivors were counted at the toxicity check, usually on the fifth day, unless a day is given; later deaths do not show. Schedule codes are those of the source, read here as Q, the interval in days (D) or hours (H), X, the number of doses. Some schedules carry Z or #; the key to these is not given. Where survival is the endpoint, this PubChem deposit counts one and a half times the control or more as active, and values a quarter to a half above the control carry no call in these data; other NCI protocols may use other cut-offs. Some entries were tested several times; the values are given in rising order. Some T/C values carry the count of animals alive at the toxicity check (mostly the fifth day); where none is given, no animal had died by that day.
Tested on: BDF1 mice, P388 leukemia ip, median survival T/C
Test: NCI In Vivo Anticancer Drug Screen. Data for tumor model P388 Leukemia (intraperitoneal) in B6D2F1 (BDF1) mice
Settings: T/C endpoint: median survival time, higher T/C = longer survival
How it was run: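 In tumour-bearing mice, survival after compound treatment is set against the vehicle group and given as a quotient.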

[1] = dose: 400.0 mg/kg/injection, schedule: Q04DX003 (ip), vehicle: saline
[2] = dose: 50.0 mg/kg/injection, schedule: Q01DX009 (ip), vehicle: other
[3] = dose: 200.0 mg/kg/injection, schedule: Q01DX009 (ip), vehicle: other
[4] = dose: 100.0 mg/kg/injection, schedule: Q01DX009 (ip), vehicle: saline with Tween-80
[5] = dose: 200.0 mg/kg/injection, schedule: Q01DX009 (ip), vehicle: saline with Tween-80
[6] = dose: 100.0 mg/kg/injection, schedule: Q01DX009 (ip), vehicle: Klucel (hydroxypropylcellulose) (HPC)
[7] = dose: 200.0 mg/kg/injection, schedule: Q01DX009 (ip), vehicle: Klucel (hydroxypropylcellulose) (HPC)
[8] = dose: 400.0 mg/kg/injection, schedule: Q04DX003 (ip), vehicle: Klucel (hydroxypropylcellulose) (HPC)
[9] = dose: 50.0 mg/kg/injection, schedule: Q01DX009 (ip), vehicle: saline with Tween-80
[10] = dose: 50.0 mg/kg/injection, schedule: Q01DX009 (ip), vehicle: saline
[11] = dose: 100.0 mg/kg/injection, schedule: Q01DX009 (ip), vehicle: saline
[12] = dose: 100.0 mg/kg/injection, schedule: Q04DX003 (ip), vehicle: saline

## NC(N)=NCCCCCC(=O)O
dose: 100.0 mg/kg/injection, schedule: Q01DX001 (ip), vehicle: saline
  survivor count: 6 of 6
dose: 200.0 mg/kg/injection, schedule: Q01DX001 (ip), vehicle: saline
  survivor count: 3 of 6
[1]
  survivor count: 3 of 6

## C=C/C(C)=C/[C@H](C)C(=O)C[C@H](O)CC1CC(=O)NC(=O)C1
dose: 18.5 mg/kg/injection, schedule: Q01DX009 (ip), vehicle: saline with Tween-80
  T/C: 130 % of control
dose: 37.0 mg/kg/injection, schedule: Q01DX009 (ip), vehicle: saline with Tween-80
  T/C: 147 % of control
dose: 150.0 mg/kg/injection, schedule: Q01DX009 (ip), vehicle: saline with Tween-80
  survivor count: 6 of 6

## O=c1cccc2n1CC1CNC[C@H]2C1
dose: 12.0 mg/kg/injection, schedule: Q01DX010 (ip), vehicle: saline
  survivor count: 0 of 6

## COc1ccc2nc3cc(Cl)ccc3c(Nc3ccc(O)c(CN(CCCl)CCCl)c3)c2c1
dose: 0.2 mg/kg/injection, schedule: Q01DX009 (ip), vehicle: saline with Tween-80
  survivor count: 6 of 6
dose: 0.5 mg/kg/injection, schedule: Q04DX003 (ip), vehicle: saline
  T/C: 131 and 140 % of control
dose: 0.75 mg/kg/injection, schedule: Q04DX003 (ip), vehicle: saline
  T/C: 145 % of control
dose: 0.88 mg/kg/injection, schedule: Q04DX003 (ip), vehicle: saline
  T/C: 133 % of control
dose: 3.75 mg/kg/injection, schedule: Q04DX003 (ip), vehicle: saline
  survivor count: 5 of 6
dose: 7.5 mg/kg/injection, schedule: Q04DX003 (ip), vehicle: saline
  survivor count: 3 of 6
dose: 15.0 mg/kg/injection, schedule: Q04DX003 (ip), vehicle: saline
  survivor count: 0 of 6

## CCCC(=O)N(C)C(C)C(=O)OC1CC(=O)N(C)c2cc(cc(OC)c2Cl)C/C(C)=C/C=CC(OC)C2(O)CC(OC(=O)N2)C(C)C2OC12C (centres undefined)
dose: 12.5 micrograms/kg/injection, schedule: Q01DX009 (ip), vehicle: saline + alcohol
  T/C: 128 % of control
dose: 25.0 micrograms/kg/injection, schedule: Q01DX009 (ip), vehicle: saline + alcohol
  T/C: 128 % of control
dose: 50.0 nanograms/kg/injection, schedule: Q## X009 (ip), vehicle: other
  survivor count: 5 of 6
dose: 100.0 micrograms/kg/injection, schedule: Q01DX009 (ip), vehicle: saline + alcohol
  T/C: 125 % of control
dose: 100.0 micrograms/kg/injection, schedule: Q01DX009 (ip), vehicle: saline
  T/C: 139 % of control
dose: 100.0 nanograms/kg/injection, schedule: Q## X009 (ip), vehicle: other
  survivor count: 6 of 6
dose: 200.0 micrograms/kg/injection, schedule: Q01DX009 (ip), vehicle: saline
  T/C: 139 % of control [5 of 6 alive]

## CCCCCCCCCCCCS(=O)CC(C)O (centres undefined)
[2]
  T/C: 126 % of control
[3]
  T/C: 133 % of control

## CCOC(=O)CCC(C)(C#N)c1ccccc1 (centres undefined)
[4]
  survivor count: 6 of 6
[5]
  survivor count: 6 of 6

## ClCCN(CCCN(CCCl)c1ccccc1)c1ccccc1
dose: 100.0 mg/kg/injection, schedule: Q01DX001 (ip), vehicle: saline with Tween-80
  T/C: 137 % of control
dose: 200.0 mg/kg/injection, schedule: Q01DX001 (ip), vehicle: saline + alcohol
  T/C: 126 % of control

## C/C(=N/N(C)C)c1ccc([N+](=O)[O-])cc1
[6]
  survivor count: 0 of 6
[7]
  survivor count: 0 of 6
dose: 225.0 mg/kg/injection, schedule: Q04DX003 (ip), vehicle: saline with Tween-80
  survivor count: 0 of 6
dose: 340.0 mg/kg/injection, schedule: Q04DX003 (ip), vehicle: saline with Tween-80
  survivor count: 4 of 6

## O=C1CCC(=O)N1CCC(=O)N(C(=O)NC1CCCCC1)C1CCCCC1
[4]
  T/C: 134 % of control

## [Cl][Co]([Cl])[Cl].[NH-]CC[N-]CC[NH-]
[5]
  survivor count: 4 of 6

## COc1cc(C=Nc2cccc(C(F)(F)F)c2)ccc1O
[8]
  survivor count: 6 of 6

## C/C=C1\CN(C(=O)C(NC(=O)C(N)C(O)C(O)COC(N)=O)C2OC(n3cc(C(=O)O)c(=O)[nH]c3=O)C(O)C2O)C1C(=O)O (centres undefined) (tested in a mixture with another compound)
dose: 400.0 mg/kg/injection, schedule: Q01DX008 (ip), vehicle: saline
  survivor count: 6 of 6

## O=[N+]([O-])c1ccc(N2c3ccccc3SC2c2ccco2)c([N+](=O)[O-])c1 (centres undefined)
dose: 6.25 mg/kg/injection, schedule: Q01DX005 (ip), vehicle: saline with Tween-80
  survivor count: 5 of 5
dose: 12.5 mg/kg/injection, schedule: Q01DX005 (ip), vehicle: saline with Tween-80
  survivor count: 5 of 5
dose: 25.0 mg/kg/injection, schedule: Q01DX005 (ip), vehicle: saline with Tween-80
  survivor count: 3 of 5

## COCCCNC1=C(C#N)C(=O)NC(c2cccc([N+](=O)[O-])c2)S1 (centres undefined)
[9]
  T/C: 131 % of control
[4]
  T/C: 131 % of control
[5]
  T/C: 147 % of control

## CCOC(=O)C(C)(OCC)OCC
dose: 400.0 mg/kg/injection, schedule: Q01DX009 (ip), vehicle: water
  T/C: 131 % of control [5 of 6 alive]

## CC(=O)SCCNCCNC1CC2CCC1C2 (centres undefined)
dose: 23.0 mg/kg/injection, schedule: Q01DX009 (ip), vehicle: saline
  survivor count: 5 of 6

## O=C1NC(c2ccccc2)N=C2Oc3ccccc3C=C12 (centres undefined)
dose: 25.0 mg/kg/injection, schedule: Q01DX009 (ip), vehicle: saline with Tween-80
  survivor count: 5 of 6
[9]
  survivor count: 3 of 6
[4]
  survivor count: 2 of 6

## N/C(=N\O)c1nn(C2OC(CO)C(O)C2O)c2ncnc(N)c12 (centres undefined)
[10]
  survivor count: 5 of 6
[11]
  survivor count: 4 of 6
[12]
  T/C: 133 % of control
dose: 200.0 mg/kg/injection, schedule: Q04DX003 (ip), vehicle: saline
  survivor count: 0 of 6
[1]
  survivor count: 0 of 6

## Cn1c(O)c(C=N)c(=O)n(C)c1=O
[12]
  survivor count: 6 of 6

## CNC(=N)c1ccc(NC(=N)c2ccc(NC(=O)Nc3ccc(NC(=O)Nc4ccc(C(=N)Nc5ccc(C(=N)NC)cc5)cc4)cc3)cc2)cc1
dose: 2.6 mg/kg/injection, schedule: Q04DX003 (ip), vehicle: Klucel (hydroxypropylcellulose) (HPC)
  T/C: 137 % of control
dose: 4.5 mg/kg/injection, schedule: Q01DX009 (ip), vehicle: Klucel (hydroxypropylcellulose) (HPC)
  T/C: 142 % of control
dose: 50.0 mg/kg/injection, schedule: Q01DX009 (ip), vehicle: Klucel (hydroxypropylcellulose) (HPC)
  survivor count: 6 of 6
[6]
  survivor count: 6 of 6
dose: 200.0 mg/kg/injection, schedule: Q04DX003 (ip), vehicle: Klucel (hydroxypropylcellulose) (HPC)
  survivor count: 4 of 6
[8]
  survivor count: 2 of 6

## O=C(CC(NC(=O)OCc1ccccc1)C(=O)O)OCc1ccccc1 (centres undefined)
dose: 176.0 mg/kg/injection, schedule: Q04DX003 (ip), vehicle: saline with Tween-80
  T/C: 127 % of control

## Nc1ccc(OCCCc2c(-c3ccccc3)nc(N)[nH]c2=O)cc1
[5]
  survivor count: 4 of 6

## CCCCCCOC(CN(C)C)C(Cl)(Cl)Cl (centres undefined)
dose: 400.0 mg/kg/injection, schedule: Q01DX009 (ip), vehicle: saline with Tween-80
  survivor count: 6 of 6

## O=c1[nH]c2c(ccc3cccnc32)c2c1CCC2
dose: 200.0 mg/kg/injection, schedule: Q04DX003 (ip), vehicle: saline with Tween-80
  survivor count: 6 of 6

## N#CCCCn1nnc(-c2ccccc2)n1
[5]
  survivor count: 2 of 6

## CCOC(=O)c1ccc(NC(=O)Nc2nc(C)cs2)cc1
[2]
  T/C: 127 % of control
[3]
  survivor count: 6 of 6
dose: 400.0 mg/kg/injection, schedule: Q01DX009 (ip), vehicle: other
  survivor count: 2 of 6

## C#CCOCCBr
dose: 33.0 mg/kg/injection, schedule: Q01DX009 (ip), vehicle: saline
  T/C: 131 % of control
[10]
  T/C: 136 and 145 % of control
  survivor count: 2 of 6
[11]
  T/C: 127 % of control
  survivor count: 4 of 6
dose: 200.0 mg/kg/injection, schedule: Q01DX009 (ip), vehicle: saline
  survivor count: 0 of 6

## CC1(C)N=C(N)N=C(N)N1c1ccc(-c2ccccc2)cc1
[6]
  survivor count: 0 of 6
[7]
  survivor count: 0 of 6
